From the supplement of paper PMC6289059
This is one part of the list. Repeats are few or missing, and single values can be far off.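 The cells are hepatocyte-like cells grown from human stem cells in which the DGUOK gene was disrupted by CRISPR, a model of liver mtDNA depletion syndrome. Each well's ATP signal was scored against the other wells on its plate, and a drug counted as a primary hit when its score was 3 or higher.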

Each compound was assayed on DGUOK Δ14/Δ5 iPSC-derived hepatocyte-like cells (SV20) (assay: ATP level (CellTiter-Glo luminescence) Z score relative to plate distribution, under 2-DG glycolysis block; higher = more cellular ATP (rescue of mitochondrial ATP production)). Conditions: 5 µM; treatment time: day 15 to day 20 of differentiation (5 days); 2-deoxy-D-glucose: 20 mM for 24 h before assay.
With `CC1(C)S[C@@H]2[C@H](N3C(=O)[C@@H](c4ccccc4)NC3(C)C)C(=O)N2[C@H]1C(=O)O` the ATP level was inactive: 2.18. For `CCn1cc(C(=O)O)c(=O)c2cc(F)c(N3CCNCC3)cc21`, the ATP level was inactive: -3.82. `COC(=O)c1c(C)cc(OC(=O)c2c(C)cc(O)c(CO)c2O)c(C)c1O` was tested, and the ATP level was inactive: 0.143. With `O=c1c(O)c(-c2ccc(O)c(O)c2)oc2c(O[C@@H]3O[C@H](CO)[C@@H](O)[C@H](O)[C@H]3O)c(O)cc(O)c12` the ATP level was inactive: -1.02. In the case of `O=C(c1ccc(OCCN2CCCCC2)cc1)c1c(-c2ccc(O)cc2)sc2cc(O)ccc12`, the ATP level is reported as inactive: -3.98. With `CC(CN1c2ccccc2Sc2ccccc21)N(C)C` (stereo not drawn) the ATP level was inactive: -1.02. For `C=C1[C@H]2CC[C@@]3(C)[C@H](c4ccoc4)OC(=O)C[C@]13O[C@H]1C[C@H](O)C(C)(C)[C@H](CC(=O)OC)[C@]12C` [3-DEOXY-3beta-HYDROXYANGOLENSIC ACID METHYL ESTER], the ATP level was inactive: -4.45. For `NS(=O)(=O)c1cc2c(cc1C(F)(F)F)NC(Cc1ccccc1)NS2(=O)=O` (stereo not drawn), the ATP level was active: 4.31. With `CNC1(C)C2CCC(C2)C1(C)C` (stereo not drawn) the ATP level was inactive: 1.85. For `NC(=O)C1(N2CCCCC2)CCN(CCCC(=O)c2ccc(F)cc2)CC1`, the ATP level was inactive: 0. `CCCCCCCCCCCCCCCC[N+](C)(C)C` was tested, and the ATP level was inactive: -13.3. With `O=C(O)CCc1nc2ccccc2[nH]1` the ATP level was inactive: -0.152. With `C=C(NC(=O)C(=C)NC(=O)c1csc(C2=N[C@@H]3c4csc(n4)[C@H]4NC(=O)c5csc(n5)[C@H]([C@](C)(O)[C@@H](C)O)NC(=O)[C@H]5CSC(=N5)/C(=C/C)NC(=O)[C@H]([C@@H](C)O)NC(=O)c5csc(n5)[C@]3(CC2)NC(=O)[C@H](C)NC(=O)C(=C)NC(=O)[C@H](C)NC(=O)[C@H]([C@@H](C)CC)N[C@@H]2C=Cc3c([C@H](C)O)cc(nc3[C@H]2O)C(=O)O[C@@H]4C)n1)C(N)=O` the ATP level was inactive: -12.3. For `Cn1c(=O)c2c(ncn2CC(O)CO)n(C)c1=O` (stereo not drawn), the ATP level was inactive: -0.646. `CCCc1nc(C(C)(C)O)c(C(=O)OCc2oc(=O)oc2C)n1Cc1ccc(-c2ccccc2-c2nnn[nH]2)cc1` was tested, and the ATP level was inactive: -0.231. In the case of `NC(=O)c1cccnc1`, the ATP level is reported as inactive: 0.707. In the case of `Nc1nccs1`, the ATP level is reported as inactive: -1.96. With `COc1cc(C)c2c(=O)cc(-c3ccccc3)oc2c1` the ATP level was inactive: 0.649. With `CC(C)(Oc1ccc(C2CC2(Cl)Cl)cc1)C(=O)O` (stereo not drawn) the ATP level was inactive: -14.6. For `CC1=C(C(=O)O)N2C(=O)[C@@H](NC(=O)[C@H](N)c3ccc(O)cc3)[C@H]2SC1`, the ATP level was inactive: 1.67. In the case of `CC1=CCCC(C)=CCC(C)(C)C=CC1` [HUMULENE (alpha)], the ATP level is reported as inactive: 1.91. With `O=C(O)/C=C/c1ccccc1` the ATP level was inactive: 1.88. `O=c1cc(-c2ccccc2)oc2ccc(O)cc12` was tested, and the ATP level was inactive: 1.75. In the case of `Nc1ncnc2c1ncn2[C@H]1C[C@H](O)[C@@H](CO)O1`, the ATP level is reported as inactive: 1.77. In the case of `Nc1ccc(S(N)(=O)=O)cc1`, the ATP level is reported as inactive: 0.865. `CCCCCCCCCCCCC(C(=O)O)C(C)C(=O)O` (stereo not drawn) was tested, and the ATP level was inactive: 2.01. In the case of `COc1ccc2c(c1)OCC(Cc1ccc(OC)c(OC)c1)C2=O` (stereo not drawn), the ATP level is reported as inactive: -1.23. For `COc1ccc([C@H]2Oc3cc(OC)cc(OC)c3C[C@H]2O)cc1`, the ATP level was inactive: -4.05. For `CCC(C)(C)c1ccc(CC(C)CN2C[C@@H](C)O[C@@H](C)C2)cc1` (stereo partly drawn), the ATP level was inactive: 2.37. For `CC[C@]12CCCN3CCc4c(n(c5ccccc45)[C@@](O)(C(=O)OC)C1)[C@@H]32`, the ATP level was inactive: -0.401. `CC(=O)c1ccc2c(c1)N(CCCN1CCN(CCO)CC1)c1ccccc1S2` was tested, and the ATP level was inactive: -3.66. With `O=c1c(O)c(-c2ccccc2)oc2cc(O)cc(O)c12` the ATP level was inactive: -3.07. With `O=C(O)c1cc(=O)c2c(OCC(O)COc3cccc4oc(C(=O)O)cc(=O)c34)cccc2o1` the ATP level was inactive: -2.05. With `Oc1c(Cl)cc(Cl)cc1Sc1cc(Cl)cc(Cl)c1O` the ATP level was inactive: -3.4. In the case of `C=CCc1ccccc1OCC(O)CNC(C)C` (stereo not drawn), the ATP level is reported as inactive: -2.85. `CCCCOc1ccc(CC(=O)NO)cc1` was tested, and the ATP level was inactive: 0.0339. For `CC(=O)OC(C)C[N+](C)(C)C` (stereo not drawn), the ATP level was inactive: 0.94. In the case of `CCCCC[C@H](CC(=O)NO)C(=O)N[C@H](C(=O)N1CCC[C@H]1CO)C(C)C`, the ATP level is reported as inactive: -8.27. In the case of `Nc1nc(=O)c2c([nH]1)NCC(CNc1ccc(C(=O)N[C@@H](CCC(=O)O)C(=O)O)cc1)N2C=O` (stereo partly drawn), the ATP level is reported as inactive: 1.8. In the case of `COc1ccc2nc3cc(Cl)ccc3c(Nc3cc(CN4CCCC4)c(O)c(CN4CCCC4)c3)c2n1`, the ATP level is reported as inactive: -5.93. In the case of `CC(C)CCC[C@@H](C)[C@H]1CC[C@H]2[C@@H]3CC=C4C[C@@H](O)CC[C@]4(C)[C@H]3CC[C@]12C`, the ATP level is reported as inactive: 0.74. For `O=C(O)/C=C/C=C/c1ccc2c(c1)OCO2`, the ATP level was inactive: -1.04. In the case of `Nc1ccn([C@@H]2O[C@H](CO)[C@@H](O)[C@H]2O)c(=O)n1`, the ATP level is reported as inactive: -1.73. `C=CC(C1=CC(=O)C(OC)=CC1=O)c1ccc(O)cc1` (stereo not drawn) was tested, and the ATP level was inactive: -1.92. With `CN(C)CCC(c1ccccc1)c1ccccn1` (stereo not drawn) the ATP level was inactive: 1.54. For `O=C(/C=C/c1ccc(O)cc1)c1ccccc1`, the ATP level was inactive: 1.42. With `CC[C@]1(O)C[C@@H]2CN(CCc3c([nH]c4ccccc34)[C@@](C(=O)OC)(c3cc4c(cc3OC)N(C)[C@H]3[C@@](O)(C(=O)OC)[C@H](OC(C)=O)[C@]5(CC)C=CCN6CC[C@]43[C@@H]65)C2)C1` the ATP level was inactive: -0.268. With `Oc1cc(O)c2c(c1)O[C@H](c1cc(O)c(O)c(O)c1)[C@H](O)[C@H]2c1c(O)cc(O)c2c1O[C@H](c1cc(O)c(O)c(O)c1)[C@H](O)[C@H]2c1c(O)cc(O)c2c1O[C@H](c1cc(O)c(O)c(O)c1)[C@H](O)C2` the ATP level was inactive: -0.137. In the case of `CCN(CCCc1ccccc1)CCCc1ccccc1`, the ATP level is reported as inactive: 0.679. For `CCCCC(CC)COC(=O)c1ccccc1O` (stereo not drawn), the ATP level was inactive: 1.49. With `CC(=O)[C@H]1CC[C@H]2[C@@H]3CC=C4C[C@@H](OC(=O)CCC(=O)O)CC[C@]4(C)[C@H]3CC[C@]12C` the ATP level was inactive: 1.96. In the case of `CC(CCc1ccc(O)cc1)NCC(O)c1ccc(O)cc1` (stereo not drawn), the ATP level is reported as inactive: 1.32. In the case of `O=P(O)(O)C(O)(Cc1cccnc1)P(=O)(O)O`, the ATP level is reported as inactive: 1.6. With `COc1ccc(-n2nc(CCC(=O)N(C)O)cc2-c2ccc(Cl)cc2)cc1` the ATP level was inactive: -8.75. With `NCCCCCN` the ATP level was inactive: 0.0508. With `CCN(CC)C(=O)N1CCN(C)CC1` the ATP level was inactive: -2.99. For `O=C(O)c1cc(O)c(O)c(O)c1`, the ATP level was inactive: -5.74. In the case of `CC(C)=CCC/C(C)=C/COc1ccc2ccc(=O)oc2c1`, the ATP level is reported as inactive: -3.86. In the case of `COc1c(OC)c2occc2c2oc(=O)ccc12`, the ATP level is reported as inactive: 2.44. `Cc1cc(CC(C)CC(C)(C)C)n(O)c(=O)c1` (stereo not drawn) was tested, and the ATP level was inactive: -11.1. With `O=S(=O)(O)CCSSCCS(=O)(=O)O` the ATP level was inactive: -2.28. For `CN1CCC[C@H]1c1cccnc1`, the ATP level was inactive: -0.846. `CCCC(C(=O)OCCN(CC)CC)(c1ccccc1)c1ccccc1` was tested, and the ATP level was inactive: -0.823. `C[C@H](CCC(=O)NCC(=O)O)[C@H]1CC[C@H]2[C@@H]3[C@H](O)C[C@@H]4C[C@H](O)CC[C@]4(C)[C@H]3C[C@H](O)[C@]12C` was tested, and the ATP level was inactive: 2.59. For `Clc1ccc(COC(Cn2ccnc2)c2ccc(Cl)cc2Cl)cc1` (stereo not drawn), the ATP level was inactive: -1.14. In the case of `NC(=O)NO`, the ATP level is reported as inactive: 1.28. `Clc1ccccc1C(c1ccccc1)(c1ccccc1)n1ccnc1` was tested, and the ATP level was inactive: -6.13. With `CO/N=C1\CN(c2nc3c(cc2F)c(=O)c(C(=O)O)cn3C2CC2)CC1CN` (stereo not drawn) the ATP level was inactive: -1.11.
